Reference: US8933142B2, “Low-extractable thioxanthones” (Lamberti Spa, priority 2010, dated 2015)
For at least one compound, name, drawing or mass did not settle the structure.

Experiments:
[1] = Through-cure (thumb twist test), as photoinitiator; conditions: 3% thioxanthone derivative, 3% Esacure A 198, cyan ink, 3 μm on coated cardboard, Hg lamp 120 W/cm
Experimental: (§1) Evaluation of “Through-Cure”
(§2) The “through cure” test evaluates the degree of cross-linking of the deeper layers of the formulate (film) spread on the substrate. The film is considered completely crosslinked when it is not detached from the substrate or damaged by the “thumb twist test”. The test is carried out at various speeds of exposure to UV source. The higher the speed the higher the reactivity of the system.
(§3) The products described in the examples were tested both as photoinitiators and sensitizers. For the evaluation as photoinitiator the following formulation is employed (by weight): 3% of derivative of thioxanthone of formula I, 3% of Esacure A 198, up to 100% with cyan ink for off-set printing. For the evaluation as sensitizers the formulation is composed as follows (by weight): 0.5% of derivative of thioxanthone of formula I, 3% of Esacure A 198, 3% of Esacure 1001, up to 100% with cyan ink for off-set printing.
(§4) The resulting mixtures are milled with a three cylinders mill (laboratory scale) and applied on a coated cardboard with a thickness of 3 μm by means of film coater (RK Print Coater Instrument Ltd), then exposed at different speed to a mercury vapors lamp at high pressure 120 W/cm.
(§5) ITX, in the same amounts, is chosen as reference.

[2] = Through-cure (thumb twist test), as sensitizer; conditions: 0.5% thioxanthone derivative, 3% Esacure A 198, 3% Esacure 1001, cyan ink, 3 μm on coated cardboard, Hg lamp 120 W/cm
Experimental: as §1, §2, §3, §4, §5

[3] = FT-IR degree of polymerization in a pigmented photopolymerizable composition (as photoinitiator); conditions: 3% photoinitiator, 3% Esacure A198, cyan ink, 3 μm film, Hg/Xe lamp 120 W/cm
Experimental: Evaluation of the Derivatives of Thioxanthone in a Pigmented Photopolymerizable Composition by Means of FT-IR.
Pigmented photopolymerizable compositions are prepared by mixing 3% by weight of both the photoinitiators of formula I (Examples 1-6) and the coinitiator Esacure A198 (bis-N,N-[4-dimethyl aminobenzoyl)oxyethylen-1-yl]-methylamine), commercialized by Lamberti S.p.A, and up to 100% by weight of a cyan ink for off-set inking.
Isopropyl thioxanthone (ITX) is chosen as reference photoinitiator.
The photopolymerizable compositions are milled with a three cylinders mill (laboratory scale) in order to homogenize the mix and applied with a thickness of 3 μm on a soft polyethylene substrate by means of a film coater (RK Print Coater Instrument Ltd).
The sample, placed in the sample lodgment of a FT-IR (FT-IR 430-Jasco), is exposed to a Mercury/Xenon Vapors light source at high pressure to 120 W/cm (L8868 Light-cure, Hamamatsu) set at a distance of 8 cm from the sample and at an angle of 30°.
IR spectra are acquired at constant time intervals during the photopolymerization and the reduction over time of the peak area at 1408 cm^−1 assigned to the acrylic double bond was determined by IR software (Perkin Elmer, Spectrum ONE v. 2.0). This allows to quantify the degree of polymerization over the time and therefore the efficiency of the photoinitiator.

[4] = FT-IR degree of polymerization in a pigmented composition (as sensitizer of Esacure 1001); conditions: 0.5% sensitizer, 3% Esacure 1001, 3% Esacure A 198, cyan ink, 3 μm film
Experimental: The compounds described in the examples were evaluated also as sensitizer in a pigmented composition as described below.
Pigmented photopolymerizable compositions are prepared by mixing 3% by weight of both Esacure 1001 and coinitiator Esacure A 198 (both commercialized by Lamberti S.p.A.), 0.5% by weight of derivatives of thioxanthone of the Examples listed in Table 1 and up to 100% by weight of a cyan ink for off-set inking. ITX is used as reference sensitizer.
The photopolymerizable compositions are milled with a three cylinders mill (laboratory scale) in order to homogenize the mix and applied with a thickness of 3 μm on a soft polyethylene substrate by means of film coater (RK Print Coater Instrument Ltd).
The sample, placed in the sample lodgment of a FT-IR (FT-IR 430-Jasco), is exposed to a Mercury/Xenon Vapors light source at high pressure to 120 W/cm (L8868 Light-cure, Hamamatsu) set at a distance of 8 cm from the sample with an angle of 30°.
IR spectra were acquired at constant time during the photopolymerization and the reduction over the time of the area of the peak at 1408 cm^−1 assigned to the acrylic double bond is determined with the help of a IR software (Perkin Elmer, Spectrum ONE v. 2.0).
This allows to quantify the degree of polymerization over time and therefore the efficiency of the photoinitiator.

Cc1ccc2sc3cc(C(=O)N4CCN(C)CC4)ccc3c(=O)c2c1 [Example 6, 4-methyl-piperazinyl 7-methyl-9-oxo-9H-thioxanthene-3-carboxamide]
Through-cure (photoinitiator) [1]: 80 m/min | Through-cure (sensitizer) [2]: 60 m/min | % degree of polymerization after 1 sec ([3]; 1 sec): 10.0% | % degree of polymerization after 2 sec ([3]; 2 sec): 17.2% | % degree of polymerization after 5 sec ([3]; 5 sec): 34.1% | % degree of polymerization after 1 sec ([4]; 1 sec): 19.8% | % degree of polymerization after 2 sec ([4]; 2 sec): 31.5% | % degree of polymerization after 5 sec ([4]; 5 sec): 41.2%
